According to PMC7819943, “Rice protein-binding microarrays: a tool to detect cis-acting elements near promoter regions in rice”:
The other results are listed elsewhere or left out.

Target: T1, OsSMF1 (Oryza sativa, UniProt Q6ZLB0 1-436)
T1 sequence: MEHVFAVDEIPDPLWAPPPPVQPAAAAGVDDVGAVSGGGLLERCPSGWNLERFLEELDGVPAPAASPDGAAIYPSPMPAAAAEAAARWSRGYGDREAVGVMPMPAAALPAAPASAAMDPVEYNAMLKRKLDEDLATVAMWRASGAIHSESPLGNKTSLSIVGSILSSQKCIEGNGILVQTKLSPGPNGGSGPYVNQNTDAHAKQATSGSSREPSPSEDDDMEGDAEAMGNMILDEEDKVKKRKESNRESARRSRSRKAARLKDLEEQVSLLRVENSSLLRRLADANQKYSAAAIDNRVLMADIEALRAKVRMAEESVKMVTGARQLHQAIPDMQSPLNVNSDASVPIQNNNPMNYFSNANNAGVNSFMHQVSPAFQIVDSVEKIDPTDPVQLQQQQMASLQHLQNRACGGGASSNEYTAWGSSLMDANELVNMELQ
Test: protein-binding microarray (RPBM); PBS, 2% BSA, 51.3 ng/ul salmon testes DNA, 50 uM zinc acetate, 200 nM TF, 25 C, 1 h; high values mean tight binding
Conditions: protein: recombinant; tags: N-terminal polyhistidine and DsRed monomer fusion (pET32a); chain copies: 2; label: CyDye5-dUTP incorporated in the synthesized complementary strand; 3' TTTTT single-stranded linker to array surface; dsDNA, one strand shown
In short: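 Transcription factors, each fused N-terminally to a polyhistidine tag and DsRed, were expressed in E. coli BL21-CodonPlus and purified on Ni–NTA. A custom Agilent array was made double-stranded by primer extension with Cy5-dUTP and blocked with 2% BSA. It was incubated with 200 nM protein in PBS, 2% BSA, salmon testes DNA and 50 µM zinc acetate at 25 °C for 1 h, then washed. The binding signal is per-feature fluorescence intensity (arbitrary units) read on an Axon 4000B scanner.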

Sequence	binding signal
GGAATTATTCTAAGTTGAATTCATATTAGTTGTACTTCACCGGAGTCACCTAGTGCAG	3160 fluorescence intensity (a.u.)
TACTTGGTCTAAGTGCTGTGCCACGCCTTGCCGGTCTCAACGGAGTCACCTAGTGCAG	4980 fluorescence intensity (a.u.)
AATGTATCATCATTCATCAGCAAAACAGACGAACAGGTTGCGGAGTCACCTAGTGCAG	4390 fluorescence intensity (a.u.)
TGCGCAAGGACGTGGCCTCTGCTGTGGTTGGTCATACAACCGGAGTCACCTAGTGCAG	7460 fluorescence intensity (a.u.)
GATCCGCATCACTGATTCACTGCACTTCGCCCGCCGTCTGCGGAGTCACCTAGTGCAG	3960 fluorescence intensity (a.u.)
TTGAGTCTTAGACGCCAATGAATATTTGTTAGTCATTCGCCGGAGTCACCTAGTGCAG	3590 fluorescence intensity (a.u.)
TGTCGTTGTATACGTTGATTGCGTGTATAAGTAATATATGCGGAGTCACCTAGTGCAG	3970 fluorescence intensity (a.u.)
TTCCTTTACTACCATATTGGTGAGGATTATCTCTACCCAACGGAGTCACCTAGTGCAG	3670 fluorescence intensity (a.u.)
GCCCAAACAAGTCACTCAGCAGTCAGCAGGTCTCACAGGCCGGAGTCACCTAGTGCAG	4680 fluorescence intensity (a.u.)
GGCAGGACGGCAGGAGGCCTGTTCGCTTGAGGTGTCTAGCCGGAGTCACCTAGTGCAG	39800 fluorescence intensity (a.u.)
TTTGGCCATGTCATCTAGAGCTTTAGTTTATAATACTTCACGGAGTCACCTAGTGCAG	4360 fluorescence intensity (a.u.)
AATCAGAGCCGAAAGCTCCAAGCTTTCCCGTTTTCAAGCCCGGAGTCACCTAGTGCAG	19000 fluorescence intensity (a.u.)
AACACACGACTATTACGAACATCCCTCGTCAGCACCCATGCGGAGTCACCTAGTGCAG	7300 fluorescence intensity (a.u.)
GTATTCTCAGGTTCGATTTCCACAAGGAACATGTGTGTCACGGAGTCACCTAGTGCAG	4270 fluorescence intensity (a.u.)
TATTTCCCTTACAAAATGATGAGTTGGTGTGTGCGCGCAGCGGAGTCACCTAGTGCAG	3720 fluorescence intensity (a.u.)
AGTTGACGTGGCATACTGACACGTGGGCCCCATGTGGGTTCGGAGTCACCTAGTGCAG	24900 fluorescence intensity (a.u.)
CTGGAGGGAGTATTTGATAACCCTGCTATATGTAGGGCTCCGGAGTCACCTAGTGCAG	32800 fluorescence intensity (a.u.)
ACGCCGCGAGATATCCCCGTCACGAATATTCCTCTTCCTCCGGAGTCACCTAGTGCAG	5260 fluorescence intensity (a.u.)
AATTCATACTGAATTCATTTACTACGTGTATGATTCATGACGGAGTCACCTAGTGCAG	4620 fluorescence intensity (a.u.)
TCAGCTAGCTCGATCACACGCCAACACACCAAGCTAGTCGCGGAGTCACCTAGTGCAG	3780 fluorescence intensity (a.u.)
TAAATTAAATTGCTACGTAAGTGCCACGTCATATTAAGATCGGAGTCACCTAGTGCAG	12500 fluorescence intensity (a.u.)

Sequence	binding signal
TAATTTCATCTTGATGGACACGTGGTTTGTCGATGTACACCGGAGTCACCTAGTGCAG	10100 fluorescence intensity (a.u.)
CCCTTCACTCCCCGTCGCATCGCATCTTGGCTGACTCGTCCGGAGTCACCTAGTGCAG	4960 fluorescence intensity (a.u.)
CGGATTCACTGCAATAGCCTCCCTGTCATCGCCAACGCCCCGGAGTCACCTAGTGCAG	3300 fluorescence intensity (a.u.)
TCATAACCACCCACAGAGGTCAGTAAGGTGGCTCAGAGATCGGAGTCACCTAGTGCAG	3480 fluorescence intensity (a.u.)
CTTGCTGTCCTCTCGTTTCCTGTGTCATTCTCGCGCGCCACGGAGTCACCTAGTGCAG	3540 fluorescence intensity (a.u.)
AAAGTTTGCCACCACTGACTAGGATTTAGTCGTCCGCACGCGGAGTCACCTAGTGCAG	4240 fluorescence intensity (a.u.)
TAGTTTCCACTCCCTCTCCTCGGGGAGTCGTTGCTGTTCTCGGAGTCACCTAGTGCAG	3350 fluorescence intensity (a.u.)
GTGTGATTATCTTCTCCATACCATCTCGTGCTACATGCGCCGGAGTCACCTAGTGCAG	40000 fluorescence intensity (a.u.)
CACCCACTGCCAGTGGGGCCCACTAGCCCACCTCACCCACCGGAGTCACCTAGTGCAG	3360 fluorescence intensity (a.u.)
ACCAGCCAAATCGCGTCCAGTCACCACCTCTTGTTCGGTTCGGAGTCACCTAGTGCAG	4150 fluorescence intensity (a.u.)
ACTCTGCCGGCAGGCGTACGTGTGTCCCGGCATTTGGTCGCGGAGTCACCTAGTGCAG	4500 fluorescence intensity (a.u.)
GACTTTCGTACGTACGTACTACGTGTTCAGCTAGCCGTTCCGGAGTCACCTAGTGCAG	3190 fluorescence intensity (a.u.)
CACCACTACCACGATCAGGCCCAAGAGATGATAAAGTGGCCGGAGTCACCTAGTGCAG	46500 fluorescence intensity (a.u.)
ATTCACAAAAGCTCTCGGCGAGTACGTGGGTCAATGGTGACGGAGTCACCTAGTGCAG	4210 fluorescence intensity (a.u.)
TGTAGGTGCCATTGATTTCATTTTGCATCAGCAAGAGCATCGGAGTCACCTAGTGCAG	3600 fluorescence intensity (a.u.)
AGCAGCGACTCCCTGGCGCCGCCGCACTCGCCGGCCGTCACGGAGTCACCTAGTGCAG	21900 fluorescence intensity (a.u.)
CTAAGCACGATTAGTGCTAAGCACGTCATTAGCGAACGTGCGGAGTCACCTAGTGCAG	5950 fluorescence intensity (a.u.)
AAAATGAAGTGGTTACCAAGTTTTCTACGTTAGCAAGAACCGGAGTCACCTAGTGCAG	26900 fluorescence intensity (a.u.)
TGATTTCAACCTTACGTGTACACCATATTAGCCACAATAACGGAGTCACCTAGTGCAG	4270 fluorescence intensity (a.u.)
CGACTGAAGACTTGGACACGGTCAGTCTTTCTGCCGTGTTCGGAGTCACCTAGTGCAG	5080 fluorescence intensity (a.u.)
ATCGAGAGAAAAGAAGCAAGGTAACACAGATTAATCATCCCGGAGTCACCTAGTGCAG	5630 fluorescence intensity (a.u.)

Reprinted at random: 3 entries already listed
Sequence	binding signal
TGTCGTTGTATACGTTGATTGCGTGTATAAGTAATATATGCGGAGTCACCTAGTGCAG	3970 fluorescence intensity (a.u.)
AATGTATCATCATTCATCAGCAAAACAGACGAACAGGTTGCGGAGTCACCTAGTGCAG	4390 fluorescence intensity (a.u.)
GTATTCTCAGGTTCGATTTCCACAAGGAACATGTGTGTCACGGAGTCACCTAGTGCAG	4270 fluorescence intensity (a.u.)
